We go through two molecules from publication PMC4845985.

Protein sequences, listed by entry. Tags and fused reporters are not part of them.
UniProt P32324: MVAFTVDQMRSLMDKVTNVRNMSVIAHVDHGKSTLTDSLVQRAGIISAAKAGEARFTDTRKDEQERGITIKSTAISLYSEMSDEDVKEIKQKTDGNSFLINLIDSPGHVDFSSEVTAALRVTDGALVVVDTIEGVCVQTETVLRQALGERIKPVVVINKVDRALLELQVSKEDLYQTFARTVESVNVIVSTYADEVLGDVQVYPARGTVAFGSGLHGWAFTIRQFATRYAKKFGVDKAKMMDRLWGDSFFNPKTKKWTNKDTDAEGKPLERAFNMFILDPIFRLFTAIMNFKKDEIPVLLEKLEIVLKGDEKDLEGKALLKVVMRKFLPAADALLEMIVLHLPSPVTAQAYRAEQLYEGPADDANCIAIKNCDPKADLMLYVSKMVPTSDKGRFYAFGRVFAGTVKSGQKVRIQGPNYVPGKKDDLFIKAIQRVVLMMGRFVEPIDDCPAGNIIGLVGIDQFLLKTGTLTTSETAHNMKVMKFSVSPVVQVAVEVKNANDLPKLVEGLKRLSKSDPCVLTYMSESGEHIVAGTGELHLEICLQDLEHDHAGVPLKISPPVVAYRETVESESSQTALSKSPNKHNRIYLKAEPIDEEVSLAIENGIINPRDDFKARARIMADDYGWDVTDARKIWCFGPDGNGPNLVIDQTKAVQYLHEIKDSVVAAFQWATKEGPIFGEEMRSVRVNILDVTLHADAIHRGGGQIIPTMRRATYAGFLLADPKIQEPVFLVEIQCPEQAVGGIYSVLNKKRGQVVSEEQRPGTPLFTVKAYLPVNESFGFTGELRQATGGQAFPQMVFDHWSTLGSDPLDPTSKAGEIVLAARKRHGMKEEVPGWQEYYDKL

No constants are given. Whether binding was seen depends on the method and setting. For some of these results: In cells and extracts the contact can be indirect. Some entries that bind do so weakly or less than the wild type. For some of these results: Where a sequence is shown, tags or fusion partners need not be part of it.

One assay deals with T1, GST-eIF5A (UniProt P23301).
T1 sequence: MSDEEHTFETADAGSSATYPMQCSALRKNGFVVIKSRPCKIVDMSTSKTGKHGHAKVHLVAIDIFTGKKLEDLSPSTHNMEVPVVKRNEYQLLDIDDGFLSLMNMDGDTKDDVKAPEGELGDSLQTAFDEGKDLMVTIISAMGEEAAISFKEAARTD
Kind of assay: pull-down; GST-eIF5A expressed in yeast; cells treated with 1% formaldehyde; lysate not treated with RNase A (polysomes kept); western blot of input and bound fractions.

The target of assay [1] is T2, lexA-Lia1 (pBTM116-Lia1) (yeast) (UniProt P47120).
T2 sequence: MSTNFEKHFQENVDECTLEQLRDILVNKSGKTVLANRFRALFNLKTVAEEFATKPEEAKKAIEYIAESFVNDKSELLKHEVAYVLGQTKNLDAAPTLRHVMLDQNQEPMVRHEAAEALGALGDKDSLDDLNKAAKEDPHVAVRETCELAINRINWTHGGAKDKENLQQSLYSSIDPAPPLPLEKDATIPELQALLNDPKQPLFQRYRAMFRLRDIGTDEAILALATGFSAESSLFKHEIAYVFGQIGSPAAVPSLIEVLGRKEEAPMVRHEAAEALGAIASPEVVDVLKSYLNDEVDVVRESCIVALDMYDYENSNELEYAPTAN
Description: two-hybrid; yeast strain L40; Gal4-AD fusion (pACT) with lexA fusion (pBTM116); growth on SC-leu,-trp,-his (HIS3) and β-gal filter assay (lacZ).

Assay [2] deals with T3, lexA-Dys1 (pBTM116-Dys1) (yeast) (UniProt P38791).
T3 sequence: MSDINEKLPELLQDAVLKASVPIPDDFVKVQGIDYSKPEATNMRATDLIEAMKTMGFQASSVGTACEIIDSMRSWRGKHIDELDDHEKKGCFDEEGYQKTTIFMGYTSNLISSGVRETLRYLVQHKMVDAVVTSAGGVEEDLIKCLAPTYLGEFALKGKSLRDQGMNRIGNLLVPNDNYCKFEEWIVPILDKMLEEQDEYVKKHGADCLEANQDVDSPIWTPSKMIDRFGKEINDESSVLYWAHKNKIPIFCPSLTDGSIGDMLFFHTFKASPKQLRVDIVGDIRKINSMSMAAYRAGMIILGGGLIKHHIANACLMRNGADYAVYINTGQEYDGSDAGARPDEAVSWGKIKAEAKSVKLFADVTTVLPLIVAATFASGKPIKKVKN
Described as above.

In assay [3] the target is lexA-eEF2 (pBTM116-eEF2) (yeast) (UniProt P32324). The assay is described as above.

B1: ribosomal protein L5 (Rpl5) (protein, UniProt P26321 1-297)
chain: MAFQKDAKSSAYSSRFQTPFRRRREGKTDYYQRKRLVTQHKAKYNTPKYRLVVRFTNKDIICQIISSTITGDVVLAAAYSHELPRYGITHGLTNWAAAYATGLLIARRTLQKLGLDETYKGVEEVEGEYELTEAVEDGPRPFKVFLDIGLQRTTTGARVFGALKGASDGGLYVPHSENRFPGWDFETEEIDPELLRSYIFGGHVSQYMEELADDDEERFSELFKGYLADDIDADSLEDIYTSAHEAIRADPAFKPTEKKFTKEQYAAESKKYRQTKLSKEERAARVAAKIAALAGQQ
On to B1, for which the binding result with GST-eIF5A was “binds”.

B2: Gal4-eIF5A (pACT-eIF5A) (protein, UniProt P23301 1-157)
chain: MSDEEHTFETADAGSSATYPMQCSALRKNGFVVIKSRPCKIVDMSTSKTGKHGHAKVHLVAIDIFTGKKLEDLSPSTHNMEVPVVKRNEYQLLDIDDGFLSLMNMDGDTKDDVKAPEGELGDSLQTAFDEGKDLMVTIISAMGEEAAISFKEAARTD
Turning to B2, the binding entry in assay [1] is on record as “binds weakly”; in assay [2] it was “binds”; in assay [3] it was “no binding”.
